Drawing on PMC7819943, “Rice protein-binding microarrays: a tool to detect cis-acting elements near promoter regions in rice”, this text covers binding signal for 42 sequences.

This is one part of the list.

For this assay, the target named is T1, OsSMF1 (Oryza sativa, UniProt Q6ZLB0 1-436).
T1 sequence: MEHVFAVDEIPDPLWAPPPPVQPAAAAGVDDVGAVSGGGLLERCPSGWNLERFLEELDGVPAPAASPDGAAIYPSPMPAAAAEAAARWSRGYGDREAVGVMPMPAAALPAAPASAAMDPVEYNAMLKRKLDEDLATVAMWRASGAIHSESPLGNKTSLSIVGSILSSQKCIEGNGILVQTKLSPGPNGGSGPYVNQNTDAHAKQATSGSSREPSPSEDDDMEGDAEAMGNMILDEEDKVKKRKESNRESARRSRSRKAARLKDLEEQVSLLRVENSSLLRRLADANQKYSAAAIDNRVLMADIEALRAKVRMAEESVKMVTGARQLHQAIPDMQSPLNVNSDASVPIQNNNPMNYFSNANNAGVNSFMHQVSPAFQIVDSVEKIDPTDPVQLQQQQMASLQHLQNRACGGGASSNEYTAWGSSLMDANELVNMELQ
Nature of the assay: protein-binding microarray (RPBM); PBS, 2% BSA, 51.3 ng/ul salmon testes DNA, 50 uM zinc acetate, 200 nM TF, 25 C, 1 h; high values mean tight binding. To be noted: protein: recombinant; tags: N-terminal polyhistidine and DsRed monomer fusion (pET32a); chain copies: 2; label: CyDye5-dUTP incorporated in the synthesized complementary strand; 3' TTTTT single-stranded linker to array surface; dsDNA, one strand shown. The gist of the method:
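An Axon 4000B scanner gave the binding signal as per-feature fluorescence intensity in arbitrary units. This followed washing of a custom Agilent array that had been incubated for 1 h at 25 °C with 200 nM protein in PBS, 2% BSA, salmon testes DNA and 50 µM zinc acetate. The proteins were transcription factors fused at the N-terminus to polyhistidine and DsRed, expressed in E. coli BL21-CodonPlus and purified on Ni–NTA.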
Turning to “GCTCTCCCGCCCCTCCCTTCTCCGGCGATCCATCCGCCGCCGGAGTCACCTAGTGCAG”, the binding signal is 5890 fluorescence intensity (a.u.).

Regarding “TTTAAAACCAGGTGGGCCCAGCGTGGCGCCTACACACCGCCGGAGTCACCTAGTGCAG”, the binding signal is 4410 fluorescence intensity (a.u.).

Regarding “CAGTAATTGATCCGACTGCTGATTCGATGGCAGTAATCTTCGGAGTCACCTAGTGCAG”, the binding signal was 3850 fluorescence intensity (a.u.).

As to “TAGATTACATCACGGCTGACGTGTACTTTGTCCGGGAGACCGGAGTCACCTAGTGCAG”, the binding signal is 10500 fluorescence intensity (a.u.).

Consider “CCATGACGACCGGAACACGTATGCTGCACCCATGCCTCCACGGAGTCACCTAGTGCAG”, for which the binding signal is 7600 fluorescence intensity (a.u.).

Consider “AGGTCTCACACTCCAAGCTCGCGCCACGTGTACGGCGAGACGGAGTCACCTAGTGCAG”, for which the binding signal is 11000 fluorescence intensity (a.u.).

For the sequence “CCGCCTGCCTGTACACGCCGGCGCTTACAGTACACCCTACCGGAGTCACCTAGTGCAG”, the binding signal was 3580 fluorescence intensity (a.u.).

For the sequence “CGTCTCATTCTCTCTCCACATTTCCTTTTGATCCCTTCTCCGGAGTCACCTAGTGCAG”, the binding signal is 24300 fluorescence intensity (a.u.).

Consider “TTGATTCTGTATCAATTCTGTACTGGTGATGTATCAGGTTCGGAGTCACCTAGTGCAG”, for which the binding signal is 3220 fluorescence intensity (a.u.).

For the sequence “AGTCATGCTATGAGGTGGTCAGGTGGACACTGTAGTATACCGGAGTCACCTAGTGCAG”, the binding signal is 10100 fluorescence intensity (a.u.).

“AACCCCAACTCGCCACGTGGGCAGTGTGGCCTCACAGGAACGGAGTCACCTAGTGCAG”: the binding signal was 16400 fluorescence intensity (a.u.).

Regarding “TTTATTATGACTTGATTTGTCATCAAATGTTCTTTAAGCACGGAGTCACCTAGTGCAG”, the binding signal was 3620 fluorescence intensity (a.u.).

As for “ATTTCCCTATCAATGATGACGTGTTGAATGCACTGATTTGCGGAGTCACCTAGTGCAG”, the binding signal was 7620 fluorescence intensity (a.u.).

Regarding “GTTAATGGAGGTATGGAAATTTGTGACACGTCTCCAAATGCGGAGTCACCTAGTGCAG”, the binding signal was 7660 fluorescence intensity (a.u.).

Consider “GGGGCTTGGAGTGACGTTTGCTACTACTGACGGATTTTCACGGAGTCACCTAGTGCAG”, for which the binding signal is 4710 fluorescence intensity (a.u.).

For the sequence “ATCTTGTCCCACTTGTCATACACACATTGTGACTTGGAGCCGGAGTCACCTAGTGCAG”, the binding signal is 4120 fluorescence intensity (a.u.).

As to “CCCTTTCTTTCATGTTGACCTCGTCACCCAACAACAACAACGGAGTCACCTAGTGCAG”, the binding signal is 3550 fluorescence intensity (a.u.).

As for “CAACCGCCGTCCTCCCGCCGCCTCCATTTCTTTAGCGGTTCGGAGTCACCTAGTGCAG”, the binding signal is 34400 fluorescence intensity (a.u.).

Turning to “AGATCTGAAGGGCTCATGTTTTCCGAGCTGCCACGTCATCCGGAGTCACCTAGTGCAG”, the binding signal was 31000 fluorescence intensity (a.u.).

Take “AAGAAAACTACGCTATACATATATAAAATTTACAATGTAACGGAGTCACCTAGTGCAG”: the binding signal was 32300 fluorescence intensity (a.u.).

As for “CCCTCCATGTCAGTCGCCTCATCCACTCCCACGTGGGCCCCGGAGTCACCTAGTGCAG”, the binding signal is 6920 fluorescence intensity (a.u.).

Consider “GAGGAGGGATCCGAGGTGTCACGGCACCGTCCCGTGAGACCGGAGTCACCTAGTGCAG”, for which the binding signal is 3610 fluorescence intensity (a.u.).

Turning to “ATAAATTTTAAATGCTACAAACCATTGTATCTTGGAACTGCGGAGTCACCTAGTGCAG”, the binding signal was 3510 fluorescence intensity (a.u.).

Take “TGACATGTTCCATGGGATGGGCCGCCGACTCACCCAACCGCGGAGTCACCTAGTGCAG”: the binding signal was 3880 fluorescence intensity (a.u.).

Consider “CAGGACTCGGCACGACGTAACGTACACAACAATAGTCTCTCGGAGTCACCTAGTGCAG”, for which the binding signal is 4080 fluorescence intensity (a.u.).

Consider “GATGATGGTGGTGTCCTTGCCGCGTCCTCTCTTCCATACCCGGAGTCACCTAGTGCAG”, for which the binding signal is 4580 fluorescence intensity (a.u.).

In the case of “CACACCAAAAGATCATGTGTGTGTCACCACCTGCAAATCTCGGAGTCACCTAGTGCAG”, the binding signal is 5830 fluorescence intensity (a.u.).

Regarding “CTAGCCGGGACGTGGAGTGCGGCGCATGCAAACATCTGGTCGGAGTCACCTAGTGCAG”, the binding signal is 3340 fluorescence intensity (a.u.).

Consider “AGCGACTCGTGTAGTTGCCACGTCAGCTTAAACTGGATGCCGGAGTCACCTAGTGCAG”, for which the binding signal is 32900 fluorescence intensity (a.u.).

As for “AATTATATTTCTTACTTTGTCATCAGTGACGGGTCGTAAGCGGAGTCACCTAGTGCAG”, the binding signal is 4790 fluorescence intensity (a.u.).

Regarding “CGCCTAGCCGGTCTCCGACCCCTCCTCCAAACGCTGTCGCCGGAGTCACCTAGTGCAG”, the binding signal was 3460 fluorescence intensity (a.u.).

Regarding “TAGCATGGAAAATAGTCATTCAATTTCACACATTGTACCACGGAGTCACCTAGTGCAG”, the binding signal is 3160 fluorescence intensity (a.u.).

Consider “AAAACGGGGATCTACTGACAGGTCACACAGCTCGCAGCAACGGAGTCACCTAGTGCAG”, for which the binding signal was 5730 fluorescence intensity (a.u.).

As for “ACAATTGGATGAACACATCTTGTGTTCAAACAAATATATTCGGAGTCACCTAGTGCAG”, the binding signal was 31800 fluorescence intensity (a.u.).

As to “ACCCGCTGATTGATTGATTGGTTTGTCTTGGTCGTTGGCTCGGAGTCACCTAGTGCAG”, the binding signal is 20500 fluorescence intensity (a.u.).

As for “TTATCACGGACGAGGTTAACACGAAAACCACGTGGTTATCCGGAGTCACCTAGTGCAG”, the binding signal was 3180 fluorescence intensity (a.u.).

Regarding “CATGCGTATGTATGTATACCAGTATGTGGATCAACTGGCGCGGAGTCACCTAGTGCAG”, the binding signal is 3200 fluorescence intensity (a.u.).

Consider “GGCGCCGTGCCGTAATCCATCTCCTCCGTCGTCCAACCTCCGGAGTCACCTAGTGCAG”, for which the binding signal is 44900 fluorescence intensity (a.u.).

As for “GTGTTCGGACAATAGATGACGTGACCTGTGTCACGGTGTTCGGAGTCACCTAGTGCAG”, the binding signal was 6840 fluorescence intensity (a.u.).

For the sequence “TTGCCCACGCATGATCCCAAGGAACCTACCCTAGTCCAAGCGGAGTCACCTAGTGCAG”, the binding signal is 3230 fluorescence intensity (a.u.).

In the case of “ATGCGGTTGTGTCTGACACGGACAAACTCAACGTGACATACGGAGTCACCTAGTGCAG”, the binding signal is 5050 fluorescence intensity (a.u.).

For the sequence “GATGTGGCAAATAACTATTTGCCACTGGACCCAAATGTCACGGAGTCACCTAGTGCAG”, the binding signal was 32700 fluorescence intensity (a.u.).
